# Values quoted from earlier work as cited in patent US10821098B2, “Treatment using dantrolene” (Lyotropic Therapeutics, Inc., priority 2001, dated 2020).
# At least one structure is not confirmed: it was looked up by name or label, or the drawing left a doubt.
# Test system: neuronal cells
# Conditions: cited from earlier work
smiles,measurement,value
COC(=O)C1=C(C)NC(C)=C(C(=O)OC)C1c1ccccc1[N+](=O)[O-] [nifedipine],prevention of kainic-induced neurological damage,nor by
